This note sets out measurements from PubChem BioAssay AID1487 (National Center for Advancing Translational Sciences (NCATS), 2009).

The nature of this experiment: qHTS Assay for Modulators of Lamin A Splicing. Conditions: HeLa LMNA splicing GFP/RFP minigene ratio, 48 h. Summed up: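 S3 HeLa stable clones carrying a lamin A-EGFP splicing minigene plus DsRed2 were seeded at 600 cells/well in Opti-MEM with 2% FBS, pin-dosed and incubated 48 h at 37°C. Acumen cytometry (488 nm) gave the GFP/RFP total-intensity ratio.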
For orientation: In qHTS, concentration-response curves come from the screen itself.

Where [1] appears, read: measured here: RFP viability control channel.
Setting [2] is: measured here: GFP splicing reporter channel.

Several values for one entry are separate records, joined by “and”; a condition that tells them apart may be missing. Equal entries are not always repeated. This is one part of the list. Shown are side measurements of this screen, not its main read-out; they come without a call. The list favours compounds with an active or inconclusive main result. The note in brackets gives the kind of curve behind each potency; many fits are weak.

As a reminder, the AC50 is the concentration at which the activity in the assay is half-maximal. For the compound `O=C(/C=C/c1cccc([N+](=O)[O-])c1)NCc1ccc2c(c1)OCO2`, under setting [1], the half-maximal activity concentration (AC50) was 25.1 µM [rising, single point].
Turning to `CCOc1cc(CNCC(O)c2ccccc2)cc(Cl)c1OC` (configuration not stated), the AC50 by setting is: under setting [2], 10 µM [falling, partial curve]; under setting [1], 3.55 µM [falling, full curve].
For the compound `c1ccc(CNc2nnnn2-c2ccccc2)cc1`, the AC50 runs as follows: under setting [2], 22.4 µM [rising, single point]; under setting [1], 25.1 µM [rising, single point].
Consider `CN1CCc2c(sc3ncn4nc(-c5ccccc5O)nc4c23)C1`, for which the AC50 under setting [1] is 20 µM [rising, single point].
Take `O=c1c(-c2cccs2)nc2cnc(N3CCNCC3)nc2n1C1CC1`: the AC50 was 17.8 µM [falling, single point] under setting [2] and 12.6 µM [falling, single point] under setting [1].
With `COc1ccc(-c2nc(C)c(CCNC(=O)c3cc(OC)c(OC)c(OC)c3)s2)cc1OC`, the concentration at half-maximal activity (AC50) under setting [1] is 0.398 µM [falling, partial curve, poor fit].
As to `O=C(Nc1nc(-c2nc3ccccc3s2)cs1)C1COc2ccccc2O1` (configuration not stated), the half-maximal activity concentration (AC50) under setting [1] was 14.1 µM [rising, single point].
On to `Cc1cc(C)cc(C(=O)Nc2nnc(SCC(=O)N3CCCc4ccccc43)s2)c1`, for which, under setting [2], the AC50 was 3.55 µM [falling, full curve, poor fit].
On to `CCCCNS(=O)(=O)c1ccc(NC(=O)C2CCCO2)cc1` (configuration not stated), for which the AC50 is, setting by setting: under setting [2], 8.91 µM [rising, partial curve]; under setting [1], 12.6 µM [rising, single point].
Turning to `CCN(CC)S(=O)(=O)c1cnccc1N1CCN(c2cccc(Cl)c2)CC1`, the AC50 is, setting by setting: under setting [2], 12.6 µM [rising, partial curve, poor fit]; under setting [1], 15.8 µM [rising, partial curve].
Consider `COC(=O)c1ccc(NC(=O)CSc2nc3ccccc3c(=O)[nH]2)cc1`, for which, under setting [1], the concentration at half-maximal activity (AC50) is 6.31 µM [falling, single point].
`COc1ccc(C(C#N)N2CCC(c3ccccc3)=N2)cc1OC` (configuration not stated): the AC50 runs as follows: under setting [2], 35.5 µM [falling, single point]; under setting [1], 7.94 µM [falling, single point].
Consider `COc1cc(C=O)c(Br)cc1OCc1ccc(C)cc1`, for which the concentration at half-maximal activity (AC50) was 35.5 µM [falling, single point] under setting [2] and 35.5 µM [falling, single point] under setting [1].
With `O=C(CSc1nc(=O)[nH]c2c1CCCC2)NCc1ccc(Cl)cc1`, the AC50 under setting [2] was 11.2 µM [rising, partial curve, poor fit].
As to `NC[C@H](O)c1ccc(O)c(O)c1`, under setting [1], the AC50 is 11.2 nM [falling, full curve, poor fit] and 5.62 µM [falling, single point].
